The values below come from patent US4460503A (priority 1983, dated 1984).

The data set in a line: general procedure: solution-phase peptide synthesis; dicyclohexylcarbodiimide / N-hydroxysuccinimide; succinimidyl esters.

Some peptides are written in HELM: one residue between dots, names in brackets for other building blocks, links after the first $. Where no end group is shown, it is not given here. The star is where a group is joined. Boc = CC(C)(C)OC(=O)*; OtBu = CC(C)(C)O*; tBu = CC(C)(C)*

As to “BOC-Lys(Z)-Asn-Gly-Ser-Gln-Met-Arg(Tos)-Leu)OBzl”, under “coupling step”, the step yield was 75%.
Consider “Boc-D(OtBu)GGS(tBu)E(OtBu)S(tBu)E(OtBu)G-OH”, for which, where the note is “coupling step”, the step yield stood at 82%.
Take DGGSESEGKNGSQMRL: where the note is “late stage modification step”, the difficulty met result is reported as “showed this preparation to be a complex mixture of products” and the step yield stood at 6.5%.
For the substance “H-Ser(Bu^t)-Glu(OBu^t)-Ser(Bu^t)-Glu(OBu^t)-Gly-OH hydrochloride”, the step yield (late stage modification step, hydrochloride) is 96%.
For the substance PEPTIDE1{D.G.G.S.E.S.E.G}$$$$V2.0, the step yield (late stage modification step) was determined as 63% and the step yield (late stage modification step, trifluoroacetate) was 99%.
With “Z-Glu(OBu^t)-Ser(Bu^t)-Glu(OBu^t)-Gly-OMe”, the step yield (coupling step) is on record as 92%.
For the setting “late stage modification step”, “Z-Ser(Bu^t)-Glu(OBu^t)-Ser(Bu^t)-Glu(OBu^t)-Gly-OH” displayed a step yield of 85%.
Under “coupling step”, “Z-Ser(Bu^t)-Glu(OBu^t)-Ser(Bu^t)-Glu(OBu^t)-Gly-OMe” came in with a step yield of 92%.
